Results taken from the supplement of paper PMC10849652.
The other results are listed elsewhere or left out.

Chains of the proteins cited; added tags and fusions are not shown. Lines headed by an entry give the natural chain unless they say otherwise; changes in a name come on top.
UniProt Q9NY74: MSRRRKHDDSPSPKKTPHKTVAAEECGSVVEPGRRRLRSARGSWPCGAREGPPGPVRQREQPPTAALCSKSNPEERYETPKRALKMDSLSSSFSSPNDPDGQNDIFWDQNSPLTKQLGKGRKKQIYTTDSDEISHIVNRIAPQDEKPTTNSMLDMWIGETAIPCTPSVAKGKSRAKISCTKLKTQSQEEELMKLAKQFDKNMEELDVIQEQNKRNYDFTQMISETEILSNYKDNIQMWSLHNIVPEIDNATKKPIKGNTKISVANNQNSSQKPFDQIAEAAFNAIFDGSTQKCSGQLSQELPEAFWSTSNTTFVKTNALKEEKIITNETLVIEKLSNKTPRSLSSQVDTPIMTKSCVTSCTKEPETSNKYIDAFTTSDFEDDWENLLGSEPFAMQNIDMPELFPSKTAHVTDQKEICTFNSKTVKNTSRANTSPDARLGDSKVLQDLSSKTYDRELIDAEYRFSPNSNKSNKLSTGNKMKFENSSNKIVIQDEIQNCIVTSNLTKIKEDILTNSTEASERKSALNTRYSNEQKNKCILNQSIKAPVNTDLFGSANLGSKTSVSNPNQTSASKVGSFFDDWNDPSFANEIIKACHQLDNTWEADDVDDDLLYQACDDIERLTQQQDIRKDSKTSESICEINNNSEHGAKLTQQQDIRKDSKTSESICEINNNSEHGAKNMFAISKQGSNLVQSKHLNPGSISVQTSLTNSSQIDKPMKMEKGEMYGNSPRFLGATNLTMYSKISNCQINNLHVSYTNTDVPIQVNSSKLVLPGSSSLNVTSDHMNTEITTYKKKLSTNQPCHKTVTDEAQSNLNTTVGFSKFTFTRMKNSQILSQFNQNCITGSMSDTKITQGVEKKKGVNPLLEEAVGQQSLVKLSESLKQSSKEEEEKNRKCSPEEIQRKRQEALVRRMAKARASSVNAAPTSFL
UniProt P41212: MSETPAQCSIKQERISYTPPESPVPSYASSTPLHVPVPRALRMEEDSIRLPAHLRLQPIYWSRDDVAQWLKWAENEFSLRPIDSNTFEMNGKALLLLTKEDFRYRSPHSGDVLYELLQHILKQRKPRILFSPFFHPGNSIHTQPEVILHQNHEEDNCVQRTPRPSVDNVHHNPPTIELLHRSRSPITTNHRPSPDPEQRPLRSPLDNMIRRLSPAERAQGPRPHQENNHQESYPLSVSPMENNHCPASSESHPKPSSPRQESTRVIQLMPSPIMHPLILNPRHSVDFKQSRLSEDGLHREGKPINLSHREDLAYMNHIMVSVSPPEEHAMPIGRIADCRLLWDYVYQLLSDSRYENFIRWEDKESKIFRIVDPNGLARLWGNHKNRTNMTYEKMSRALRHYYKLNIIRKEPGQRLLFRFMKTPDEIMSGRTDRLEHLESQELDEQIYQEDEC
UniProt P41161: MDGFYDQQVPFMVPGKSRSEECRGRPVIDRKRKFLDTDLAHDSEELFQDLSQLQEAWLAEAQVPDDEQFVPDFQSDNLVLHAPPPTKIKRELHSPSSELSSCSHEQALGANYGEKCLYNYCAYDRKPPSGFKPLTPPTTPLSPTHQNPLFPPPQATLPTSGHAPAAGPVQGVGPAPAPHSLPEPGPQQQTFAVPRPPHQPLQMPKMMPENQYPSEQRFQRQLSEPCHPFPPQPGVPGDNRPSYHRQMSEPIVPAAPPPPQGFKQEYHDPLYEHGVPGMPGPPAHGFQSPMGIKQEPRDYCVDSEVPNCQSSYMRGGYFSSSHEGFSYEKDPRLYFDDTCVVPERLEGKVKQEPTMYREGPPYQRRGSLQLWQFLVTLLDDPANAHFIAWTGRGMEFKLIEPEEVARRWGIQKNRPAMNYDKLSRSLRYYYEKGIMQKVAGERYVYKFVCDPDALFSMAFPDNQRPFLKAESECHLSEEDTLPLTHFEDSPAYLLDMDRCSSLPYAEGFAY
UniProt Q8WUF8: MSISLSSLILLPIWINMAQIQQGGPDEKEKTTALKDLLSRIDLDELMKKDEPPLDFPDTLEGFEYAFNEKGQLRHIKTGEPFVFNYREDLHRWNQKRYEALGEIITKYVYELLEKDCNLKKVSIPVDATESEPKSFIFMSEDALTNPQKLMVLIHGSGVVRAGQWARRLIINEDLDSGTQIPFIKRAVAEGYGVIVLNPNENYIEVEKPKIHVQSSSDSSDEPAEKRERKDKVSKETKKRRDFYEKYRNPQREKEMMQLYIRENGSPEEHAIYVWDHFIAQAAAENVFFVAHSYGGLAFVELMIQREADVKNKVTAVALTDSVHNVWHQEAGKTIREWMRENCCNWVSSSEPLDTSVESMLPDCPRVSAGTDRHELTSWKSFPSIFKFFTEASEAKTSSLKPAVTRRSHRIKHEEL
UniProt Q8IXR5: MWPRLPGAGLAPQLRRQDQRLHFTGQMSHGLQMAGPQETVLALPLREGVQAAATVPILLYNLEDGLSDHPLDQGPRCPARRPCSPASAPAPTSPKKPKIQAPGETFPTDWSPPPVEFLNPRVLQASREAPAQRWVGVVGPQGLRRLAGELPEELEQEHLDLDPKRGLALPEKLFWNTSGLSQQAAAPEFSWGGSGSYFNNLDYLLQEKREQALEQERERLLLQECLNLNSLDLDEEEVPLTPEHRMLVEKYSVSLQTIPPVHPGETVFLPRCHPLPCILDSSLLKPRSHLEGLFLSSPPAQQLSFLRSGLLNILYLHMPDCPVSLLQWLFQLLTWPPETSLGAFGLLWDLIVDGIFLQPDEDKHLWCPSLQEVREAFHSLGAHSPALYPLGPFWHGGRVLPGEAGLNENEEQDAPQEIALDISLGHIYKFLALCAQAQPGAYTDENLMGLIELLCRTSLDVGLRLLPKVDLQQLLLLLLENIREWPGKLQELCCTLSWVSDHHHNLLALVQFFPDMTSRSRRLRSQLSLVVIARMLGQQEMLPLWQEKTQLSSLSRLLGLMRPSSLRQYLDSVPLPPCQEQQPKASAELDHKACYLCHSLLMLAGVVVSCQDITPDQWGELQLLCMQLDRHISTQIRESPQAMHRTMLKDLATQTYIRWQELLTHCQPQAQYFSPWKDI
UniProt Q56NI9: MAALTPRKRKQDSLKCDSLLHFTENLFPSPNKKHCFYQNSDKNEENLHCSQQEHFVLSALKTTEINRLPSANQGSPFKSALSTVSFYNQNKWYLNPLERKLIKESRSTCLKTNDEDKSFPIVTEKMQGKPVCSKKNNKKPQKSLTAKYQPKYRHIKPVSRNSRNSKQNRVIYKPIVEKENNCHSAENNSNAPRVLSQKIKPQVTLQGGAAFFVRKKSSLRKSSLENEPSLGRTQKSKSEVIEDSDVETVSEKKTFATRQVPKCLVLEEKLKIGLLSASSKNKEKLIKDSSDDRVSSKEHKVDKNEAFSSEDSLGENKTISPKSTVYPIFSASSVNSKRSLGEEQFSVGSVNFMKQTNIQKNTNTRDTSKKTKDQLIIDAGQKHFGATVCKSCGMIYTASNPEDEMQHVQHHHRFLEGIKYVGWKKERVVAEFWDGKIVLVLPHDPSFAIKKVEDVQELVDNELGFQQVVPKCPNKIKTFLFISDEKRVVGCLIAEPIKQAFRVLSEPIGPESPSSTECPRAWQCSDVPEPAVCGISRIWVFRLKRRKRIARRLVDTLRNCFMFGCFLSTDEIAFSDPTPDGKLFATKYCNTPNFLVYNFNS
UniProt Q8IW50: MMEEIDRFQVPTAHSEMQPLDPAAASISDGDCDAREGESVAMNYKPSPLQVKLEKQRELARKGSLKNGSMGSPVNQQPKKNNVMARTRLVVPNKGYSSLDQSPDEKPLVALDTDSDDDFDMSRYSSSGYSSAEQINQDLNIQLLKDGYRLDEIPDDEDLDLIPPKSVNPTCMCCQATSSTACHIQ
UniProt Q9NYF3: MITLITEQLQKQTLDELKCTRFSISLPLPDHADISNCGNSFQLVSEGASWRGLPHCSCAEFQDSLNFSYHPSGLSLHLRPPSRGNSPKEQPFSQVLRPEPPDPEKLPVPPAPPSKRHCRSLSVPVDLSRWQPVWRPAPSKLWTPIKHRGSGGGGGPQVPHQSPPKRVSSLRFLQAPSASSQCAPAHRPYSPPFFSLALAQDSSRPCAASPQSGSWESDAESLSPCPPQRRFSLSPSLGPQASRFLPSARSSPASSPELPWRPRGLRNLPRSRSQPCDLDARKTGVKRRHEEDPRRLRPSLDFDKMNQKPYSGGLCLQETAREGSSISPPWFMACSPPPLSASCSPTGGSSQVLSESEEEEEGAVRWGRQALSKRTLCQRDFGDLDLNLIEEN
UniProt Q8IXS8: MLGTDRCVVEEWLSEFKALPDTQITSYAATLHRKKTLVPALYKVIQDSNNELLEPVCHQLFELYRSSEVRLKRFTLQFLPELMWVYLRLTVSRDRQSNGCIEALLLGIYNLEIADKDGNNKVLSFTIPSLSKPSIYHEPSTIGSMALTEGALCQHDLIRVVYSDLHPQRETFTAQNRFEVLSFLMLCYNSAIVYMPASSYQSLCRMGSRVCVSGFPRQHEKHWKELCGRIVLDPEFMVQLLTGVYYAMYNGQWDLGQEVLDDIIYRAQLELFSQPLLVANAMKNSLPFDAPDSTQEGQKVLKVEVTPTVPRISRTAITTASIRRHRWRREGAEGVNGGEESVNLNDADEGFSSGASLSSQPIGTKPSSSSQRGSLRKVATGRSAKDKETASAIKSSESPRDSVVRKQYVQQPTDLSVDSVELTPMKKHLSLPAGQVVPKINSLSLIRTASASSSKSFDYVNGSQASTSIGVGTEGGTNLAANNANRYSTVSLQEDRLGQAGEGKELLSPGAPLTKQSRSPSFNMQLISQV
UniProt P11474: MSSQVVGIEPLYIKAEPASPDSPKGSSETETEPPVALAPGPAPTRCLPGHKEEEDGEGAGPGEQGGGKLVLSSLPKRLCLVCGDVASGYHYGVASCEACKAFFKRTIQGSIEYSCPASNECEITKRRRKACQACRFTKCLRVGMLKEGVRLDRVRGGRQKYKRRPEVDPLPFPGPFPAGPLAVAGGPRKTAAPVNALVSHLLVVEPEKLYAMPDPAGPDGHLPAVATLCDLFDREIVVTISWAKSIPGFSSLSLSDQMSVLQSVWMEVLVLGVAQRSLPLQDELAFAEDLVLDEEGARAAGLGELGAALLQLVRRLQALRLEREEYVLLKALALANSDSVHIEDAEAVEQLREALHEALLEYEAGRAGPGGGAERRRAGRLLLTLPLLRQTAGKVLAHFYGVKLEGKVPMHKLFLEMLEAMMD
UniProt Q9Y2C4: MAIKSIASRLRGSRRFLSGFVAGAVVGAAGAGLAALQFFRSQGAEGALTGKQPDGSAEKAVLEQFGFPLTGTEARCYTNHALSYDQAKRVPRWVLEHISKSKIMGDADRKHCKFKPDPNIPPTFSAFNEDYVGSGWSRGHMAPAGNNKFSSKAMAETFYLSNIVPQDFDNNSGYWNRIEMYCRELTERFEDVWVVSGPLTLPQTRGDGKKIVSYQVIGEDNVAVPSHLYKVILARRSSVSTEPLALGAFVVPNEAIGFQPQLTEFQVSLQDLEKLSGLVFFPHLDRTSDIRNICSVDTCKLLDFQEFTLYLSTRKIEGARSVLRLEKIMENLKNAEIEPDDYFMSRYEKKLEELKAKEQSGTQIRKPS
UniProt Q8IWE2: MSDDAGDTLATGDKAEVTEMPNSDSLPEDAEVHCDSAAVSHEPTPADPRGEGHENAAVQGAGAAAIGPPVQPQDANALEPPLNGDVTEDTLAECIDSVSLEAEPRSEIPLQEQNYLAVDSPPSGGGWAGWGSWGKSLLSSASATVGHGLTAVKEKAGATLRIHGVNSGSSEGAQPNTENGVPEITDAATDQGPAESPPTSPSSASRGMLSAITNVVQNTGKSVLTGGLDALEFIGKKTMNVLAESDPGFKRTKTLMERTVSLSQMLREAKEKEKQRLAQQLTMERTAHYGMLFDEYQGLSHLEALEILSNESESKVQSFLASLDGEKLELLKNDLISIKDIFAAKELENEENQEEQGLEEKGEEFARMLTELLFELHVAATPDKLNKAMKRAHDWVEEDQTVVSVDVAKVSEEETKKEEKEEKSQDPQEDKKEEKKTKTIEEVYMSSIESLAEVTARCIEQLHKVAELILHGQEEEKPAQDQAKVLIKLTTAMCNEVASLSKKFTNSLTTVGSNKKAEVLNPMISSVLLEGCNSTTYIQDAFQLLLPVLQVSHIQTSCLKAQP
UniProt P41162: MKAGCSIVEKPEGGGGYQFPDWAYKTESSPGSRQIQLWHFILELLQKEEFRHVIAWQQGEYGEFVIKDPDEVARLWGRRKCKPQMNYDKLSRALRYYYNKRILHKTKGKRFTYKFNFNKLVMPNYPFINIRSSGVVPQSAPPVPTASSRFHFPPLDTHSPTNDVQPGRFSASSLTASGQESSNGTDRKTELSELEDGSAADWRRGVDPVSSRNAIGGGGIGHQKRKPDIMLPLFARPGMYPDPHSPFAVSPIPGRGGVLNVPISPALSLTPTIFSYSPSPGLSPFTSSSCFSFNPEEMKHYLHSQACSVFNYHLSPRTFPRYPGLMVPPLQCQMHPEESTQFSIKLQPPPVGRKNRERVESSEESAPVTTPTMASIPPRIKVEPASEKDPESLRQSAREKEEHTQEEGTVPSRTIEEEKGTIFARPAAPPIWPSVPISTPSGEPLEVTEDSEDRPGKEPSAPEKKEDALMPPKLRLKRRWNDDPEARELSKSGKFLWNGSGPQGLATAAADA

compound: c1cn2cc(-c3ccc4cn[nH]c4c3)nc(Nc3ccc(N4CCOCC4)cc3)c2n1 [entospletinib]; experiment: log2 fold change, soluble protein after heating vs DMSO (PISA); higher = thermal stabilisation; K562 lysate, 10 uM; active = over 0.2 and 3.5 SD of the protein, either way, in both replicates (recomputed)
In short: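 Dounce homogenisation of K562 pellets in PBS pH 7.4 with 1 mM MgCl2 produced a crude extract, used at 1 mg/mL protein. Exposure to 10 μM compound lasted 30 min, and aliquots were then heated for 3 min across 48°C-58°C, pooled and brought to 0.5% NP-40 at 4°C. The supernatant after 21,000xg for 90 min was quantified by TMTpro 16plex LC-MS/MS with channel sums equalised. Duplicate values are given as log-two fold change in thermal stability relative to solvent controls.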

log2 fold change, inactive:
ERV3-1 (UniProt Q14264) 0.229
ERN1 (UniProt O75460) -0.045
ETAA1 (UniProt Q9NY74) 0.088
ETV6 (UniProt P41212) 0.077
ETV5 isoform 2 (UniProt P41161) 0.047
EXOC3L2, A0A1C7CYX0 -0.098
FAM172A (UniProt Q8WUF8) 0.044
FAM178B (UniProt Q8IXR5) -0.106
ESCO2 (UniProt Q56NI9) 0.153
FAM219A (UniProt Q8IW50) -0.101
EWSR1 (UniProt H7BY36) 0.016
FAM53C (UniProt Q9NYF3) 0.03
FAM49B, A0A1W2PRQ0 0.13
FAM126B (UniProt Q8IXS8) 0.092
ESRRA (UniProt P11474) -0.034
FAH isoform 2 (UniProt P16930) 0.032
F2 (UniProt P00734) 0.042
EXOG (UniProt Q9Y2C4) 0.339
FAM114A1 (UniProt Q8IWE2) -0.063
ESPN (UniProt B1AK53) 0.023
EXOC6B (UniProt Q9Y2D4) 0.166
ETV3 (UniProt P41162) -0.054

Taken from the entries so far for reference:
log2 fold change, inactive:
EXOC3L2, A0A1C7CYX0 -0.098
FAM172A (UniProt Q8WUF8) 0.044
